## Results of single-concentration screens

Chains of the proteins cited; added tags and fusions are not shown. Residues count along the entry.
UniProt P9WFT3, whole entry: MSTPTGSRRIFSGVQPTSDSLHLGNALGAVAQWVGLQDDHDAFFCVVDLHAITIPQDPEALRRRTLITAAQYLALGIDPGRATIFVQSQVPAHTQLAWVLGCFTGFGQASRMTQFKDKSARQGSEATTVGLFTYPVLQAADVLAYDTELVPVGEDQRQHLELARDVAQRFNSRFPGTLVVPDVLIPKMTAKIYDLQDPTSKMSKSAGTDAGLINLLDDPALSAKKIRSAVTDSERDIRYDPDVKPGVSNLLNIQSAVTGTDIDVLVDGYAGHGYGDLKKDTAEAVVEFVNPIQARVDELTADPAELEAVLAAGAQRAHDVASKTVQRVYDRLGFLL
UniProt Q4DA54, 1-478: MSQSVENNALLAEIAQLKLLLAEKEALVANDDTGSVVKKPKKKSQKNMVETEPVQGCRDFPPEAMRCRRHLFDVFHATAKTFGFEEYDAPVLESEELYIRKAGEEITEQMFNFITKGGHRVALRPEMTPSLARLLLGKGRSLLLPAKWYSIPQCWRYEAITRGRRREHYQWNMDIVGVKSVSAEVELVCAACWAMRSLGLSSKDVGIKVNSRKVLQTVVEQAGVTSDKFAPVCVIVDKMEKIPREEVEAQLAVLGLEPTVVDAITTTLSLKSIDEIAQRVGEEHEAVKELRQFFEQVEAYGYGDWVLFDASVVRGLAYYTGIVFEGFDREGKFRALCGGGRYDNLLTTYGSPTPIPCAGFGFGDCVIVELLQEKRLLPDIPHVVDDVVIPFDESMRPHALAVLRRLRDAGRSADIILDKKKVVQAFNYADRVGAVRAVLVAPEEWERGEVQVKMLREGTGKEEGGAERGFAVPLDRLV

Measurements from “University of Dundee, Small-Polar-MMV Screening Library” (2021), ChEMBL document CHEMBL3988442.

MtTrpRS: 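Enzyme assay of tryptophanyl-tRNA synthetase; the read-out is not stated. Target: Tryptophan-tRNA ligase, Mycobacterium tuberculosis (UniProt P9WFT3). Tested at 10 µM. Higher most likely means stronger inhibition; the record gives no direction and few retests gave an IC50. Size under these conditions: about 65,000 compounds, about 64 of them at 50% or above in at least one test.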
Leishmania in macrophages: 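Cell assay of Leishmania donovani living inside macrophages; the read-out is not stated. Compounds at 30 µM. Higher reads as stronger inhibition (inferred: compounds with an IC50 in retests scored well above the rest). About 69,000 compounds were tested under these conditions; 1.5% (about 1,000) showed 50% or more at least once.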
TcHisRS: 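Enzyme assay of histidyl-tRNA synthetase; the read-out is not stated. Target: Histidine-tRNA ligase, Trypanosoma cruzi CL Brener (UniProt Q4DA54). Tested at 30 µM. Direction is inferred from retests: higher values go with stronger inhibition. Of about 69,000 compounds tested this way, about 31 (0.045%) reached 50% or more in at least one test.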

Values are the deposited “Percent Effect”, in %.
The controls that fix the scale are not given in the record; negative values are as filed.
The compounds are a random part of those screened.

Result for [H][C@@]12CN(CCOC)C[C@]1([H])[C@H](OC)CCN2Cc1ccc(C)o1 was Leishmania in macrophages: 22.66%.
Result for COC(=O)c1ccc(N(C(=O)c2cc(Cl)ccn2)C(C)C)c(C)c1 was MtTrpRS: -2.761%; Leishmania in macrophages: 0.3286%; TcHisRS: 0.5525%.
Result for CNS(=O)(=O)CCCNC(C)(C)c1nc(C)cs1 was MtTrpRS: -1.445%; Leishmania in macrophages: 23.79%; TcHisRS: 2.674%.
Result for CN(C)c1ccc(C(=O)NCc2csc(Br)c2)cn1 was MtTrpRS: 0.3975%; Leishmania in macrophages: 13.48%; TcHisRS: 4.274%.
Result for COc1ccc2[nH]c3c(c2c1)CN(c1cc(NCCO)nc(N)n1)CC3 was MtTrpRS: -0.1566%; Leishmania in macrophages: 13.82%; TcHisRS: 25.37%.
Result for NC(=O)C1CCCN(c2ncnc3c2Cc2ccccc2OC3)C1 (stereo not shown) was MtTrpRS: -0.7236%; Leishmania in macrophages: -18.96%; TcHisRS: 0.9662%.
Result for Cc1cc(C(=O)N2CCN(Cn3cc(Cl)cn3)CC2)on1 was MtTrpRS: 4.46%; Leishmania in macrophages: 13.27%; TcHisRS: 6.667%.
Result for CC(C)c1noc(CNc2ccc(OC(F)F)cc2OC(F)F)n1 was MtTrpRS: 7.405%; Leishmania in macrophages: -6.837%; TcHisRS: -3.665%.
Result for Cc1n[nH]c(=O)c2c(NC(=O)CN3CCCC(C(F)(F)F)C3)oc(C)c12 (stereo not shown) was MtTrpRS: 2.747%; Leishmania in macrophages: 14.91%; TcHisRS: 0.7634%.
Result for O=C(NCCCc1cccs1)N1CCCCC1CCO (stereo not shown) was MtTrpRS: 2.064%; Leishmania in macrophages: -7.248%; TcHisRS: -1.316%.
Result for CC(C)n1cnc2c1C(C(=O)N1CCCC1)N(CC1CC1)CC2.O=C(O)C(F)(F)F (stereo not shown) was Leishmania in macrophages: -1.176%.
Result for Cc1ccc(C2=CCN(C(=O)C3CCN(C)C(=O)C3)CC2)cc1 (stereo not shown) was MtTrpRS: -4.035%; Leishmania in macrophages: 27.02%; TcHisRS: 8.671%.
Result for Cc1cnc(N2Cc3cnn(Cc4ccc(F)cc4)c3C2)nc1N(C)C was MtTrpRS: -2.829%; Leishmania in macrophages: 3.934%; TcHisRS: 3.352%.
Result for O=C(O)C(F)(F)F.[H][C@]12CN(CCN(C)C)C(=O)[C@@]1([H])CN(S(=O)(=O)c1cccs1)C2 was Leishmania in macrophages: 4.627%.
Result for COc1cc(NC(=O)NCc2ccccn2)cc(OC)c1 was MtTrpRS: -4.636%; Leishmania in macrophages: 29.68%; TcHisRS: -1.807%.
Result for [H][C@@]12COC[C@]1(C(=O)NCCOC)CN(C1CCOCC1)C2 was Leishmania in macrophages: 18.25%.
Result for O=C(O)C(F)(F)F.[H][C@@]12CN(C(=O)Cc3ccsc3)C[C@]1([H])OCCN2c1cnccn1 was Leishmania in macrophages: 11.44%.
Result for Cc1ccc(CN(CCCn2ccnc2)Cc2ccccc2O)s1 was MtTrpRS: -4.348%; TcHisRS: 10.45%.
Result for CC(C)(C)c1cc(C[C@H]2CNCC[C@H]2CC(=O)Nc2ccccc2)no1 was MtTrpRS: 0.8364%; Leishmania in macrophages: 22.46%; TcHisRS: 6.468%.
Result for COc1nn(C)c2c1CCCN(C(=O)c1cccs1)C2 was MtTrpRS: 0.2571%; Leishmania in macrophages: -23.55%; TcHisRS: 0.6135%.
Result for CC(c1ccccn1)N(C)Cc1ccc(-n2cncn2)cc1 (stereo not shown) was MtTrpRS: -9.554%; Leishmania in macrophages: 3.001%; TcHisRS: 8.458%.
Result for CC(C)S(=O)(=O)N1CCCC(c2cccc(C(=O)O)c2)C1 (stereo not shown) was MtTrpRS: -0.7916%; Leishmania in macrophages: 14%; TcHisRS: 0%.
Result for CCn1c(-c2ccccc2)nn(CC(=O)NCCc2ccc(C)s2)c1=O was MtTrpRS: 8.123%; Leishmania in macrophages: -5.549%; TcHisRS: 1.064%.
Result for O=C(O)C(F)(F)F.O=S(=O)(NC1CCC12CCN(CC1CC1)CC2)c1ccccc1 (stereo not shown) was Leishmania in macrophages: -16.69%.
Result for Cc1ccc(C)c(C(=O)Nc2ccc(OC3CCN(C)CC3)cc2)c1 was MtTrpRS: -0.7971%; Leishmania in macrophages: 1.608%; TcHisRS: -1.508%.
Result for CC(C)C(=O)Nc1cc(C(C)(C)C)nn1-c1ccccn1 was MtTrpRS: -4.823%; Leishmania in macrophages: -19.05%; TcHisRS: 0%.
Result for COc1ccccc1CC(=O)NC(C)c1nc2cccnc2n1C(C)C (stereo not shown) was MtTrpRS: 0.7843%; Leishmania in macrophages: 6.417%; TcHisRS: 5.323%.
Result for COCc1cc(N(C)Cc2ccccn2)nc(C(C)(C)C)n1 was MtTrpRS: -1.012%; Leishmania in macrophages: 35.09%; TcHisRS: 4.433%.

Repeated from the top, 2 entries:

Result for [H][C@@]12CN(CCOC)C[C@]1([H])[C@H](OC)CCN2Cc1ccc(C)o1 was Leishmania in macrophages: 22.66%.
Result for COC(=O)c1ccc(N(C(=O)c2cc(Cl)ccn2)C(C)C)c(C)c1 was MtTrpRS: -2.761%; Leishmania in macrophages: 0.3286%; TcHisRS: 0.5525%.